From patent US20220098289A1
No constants are given. Whether binding was seen depends on the method and setting. Binding seen in cells or lysates may run through a third protein. Some results given as binding are weak or reduced against the parent protein; the word gives no strength.

Legend:
[1] = biological target: transgenic human APP (human) (UniProt P05067); assay: co-immunoprecipitation from the synaptosomal fraction, Western blot (FIG. 5U)
[2] = biological target: transgenic human APP (human) (UniProt P05067); assay: co-immunoprecipitation from the synaptosomal fraction, Western blot

binding [1]: binds
binding [2]: binds
B1: mouse Sfrp1 (protein, UniProt Q8C4U3 32-314, looked up)
chain: SEYDYVSFQSDIGSYQSGRFYTKPPQCVDIPVDLRLCHNVGYKKMVLPNLLEHETMAEVKQQASSWVPLLNKNCHMGTQVFLCSLFAPVCLDRPIYPCRWLCEAVRDSCEPVMQFFGFYWPEMLKCDKFPEGDVCIAMTPPNTTEASKPQGTTVCPPCDNELKSEAIIEHLCASEFALRMKIKEVKKENGDKKIVPKKKKPLKLGPIKKKELKRLVLFLKNGADCPCHQLDNLSHNFLIMGRKVKSQYLLTAIHKWDKKNKEFKNFMKRMKNHECPTFQSVFK
